{
  "source": "patent US9782398B2",
  "about": "“Pharmaceutical compositions comprising an antipsychotic drug and a VMAT2 inhibitor and uses thereof” (NEUROCRINE BIOSCIENCES, INC., priority 2014, dated 2017)",
  "test_system": "Male Wistar rats",
  "assay": "Conditioned avoidance response (CAR) test of antipsychotic activity",
  "format": "in vivo",
  "conditions": "olanzapine 0.6 mg/kg i.p. administered singly, 30 min prior to testing, rat",
  "description": "In the CAR paradigm, a rat is trained in a two chamber shuttle box to respond to a conditioned stimulus (auditory) by negative reinforcement. If the animal fails to move to the other chamber upon presentation of an auditory stimulus, a mild foot shock is applied to the side where the rat is located. The rat learns to avoid the mild foot shock by moving to the other chamber upon initiation of the auditory signal, termed a conditioned avoidance response. Crossing to the other chamber during administration of the shock is termed an escape response. If a rat fails to move to the other chamber even upon administration of the foot shock, the rat is considered to have an escape failure.\nRats were trained every day for 3 to 4 weeks. In the training session, rats were placed in the CAR two-way shuttle box and the training period of 20 trials ensued. […]\nOn test day, trained animals were acclimated in the test room for 30 minutes prior to testing. […] If the animal moved to the other chamber on presentation of the conditioned stimulus, it was scored as a conditioned avoidance response. If it moved upon presentation of the foot shock, it was scored as an escape. […] Data were analyzed by analysis of variance (ANOVA) followed by post-hoc comparisons with the Bonferroni Test when appropriate. […] Outliers defined as two standard deviations above or below the mean were detected and were removed from all analysis. […]",
  "note": "“Also recorded” adds a separate entry of the source. For at least one compound, name, drawing or mass did not settle the structure.",
  "data": [
    {"smiles": "Cc1cc2c(s1)Nc1ccccc1N=C2N1CCN(C)CC1", "note": "[olanzapine]", "values": [
      {"measurement": "number of escapes compared to vehicle", "value": "did not increase; also recorded: did not result in changes from the vehicle results"}
    ]}
  ]
}
